Source: patent publication US20130053323A1, “METHODS AND USE RELATED TO HUMANIN AND HUMANIN-LIKE PEPTIDES” (priority 2009, published 2013)
For at least one compound, name, drawing or mass did not settle the structure.

System: IL-6
Experiment: IL-6 ELISA in culture medium of LPS-treated ATDC5 chondrocytes
Format: cell-based, mice
Settings: LPS 10 μg/ml 24 hrs; Dexa 1 pM (so in the source)
Protocol: Mice chondrocyte cell line ATDC5 (1×10^6), was cultured in DMEM/Ham's F12 (Invitrogen) supplemented with 5% FCS, 10 μg/ml human transferrin and 3×10^−8 M (30 nM) sodium selenite until confluent (day 6), as previously reported (Owen, Miner et al. 2007). Thereafter, differentiation was induced by the addition of insulin (10 μg/ml; Sigma) and ascorbic acid (20 μg/ml) to the maintenance medium (differentiation medium). Incubation was at 37° C. in a humidified atmosphere of 95% air/5% CO2. The culture medium was changed every second day. On day 6, lipopolysacharide (LPS) 10 μg/ml […] Dexa (1 μM) and HNG (10 nM, S14G) were added in DMEM/Ham's F12 only and cells were incubated further 24 hrs. Next day, the cell culture medium was collected and analyzed for Intraleukin-6 (IL-6) cytokine levels by using commercially available ELISA kit (R&D Systems, Minneapolis, Minn.) according to instructions provided from manufacturer.
FIG. 2C. […] Therefore, ATDC5 chondrocytes (mice) were cultured and treated with lipopolysacharide (LPS, 10 μg/ml) for 24 hrs to induce inflammation.

Compound: C[C@@H]1C[C@H]2[C@@H]3CCC4=CC(=O)C=C[C@]4(C)[C@@]3(F)[C@@H](O)C[C@]2(C)[C@@]1(O)C(=O)CO [Dexa, Dexamethasone, reference compound]
- IL-6 production: completely suppressed/blocked IL-6 production
